Measured values: PubChem BioAssay AID504467 (National Center for Advancing Translational Sciences (NCATS), 2011)
The campaign covered roughly 330,000 compounds. About 7,700 (2.3%) were called active. The inconclusive results got no clear call from the source; some entries with a clear call stand among them for comparison. The call rests on the fitted dose curve; in most records, active means well fitted inhibition curve with a large enough effect; inconclusive means small, poorly fitted or top-dose-only effect, or effect the other way; inactive means flat fitted curve, though single readings scatter. Where the call is inconclusive, the potency comes from a doubtful curve fit.

Experiment: qHTS screen for small molecules that inhibit ELG1-dependent DNA repair in human embryonic kidney (HEK293T) cells expressing luciferase-tagged ELG1; further: nearly all actives have a fitted effect of over 55% in size
Settings: HEK293T ELG1-luciferase reporter, luminescence, 16 h, DNA damage induced by 5-fluorouridine; activity change, negative = inhibition: at 46.1 µM (top of the series)
Procedure, shortened: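 HEK293T cells expressing luciferase-tagged ELG1 (2,000/well) received 5-Fluorouridine plus compound or DMSO for 16 hr at 37 °C. Luciferase was read by ONE-Glo luminescence after 30 min at room temperature.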
On the % scale 0 is the no-effect control and ±100 the full control effect; potency means the concentration at half of the fitted maximal effect.

SMILES	Potency	activity change, negative = inhibition
Clc1ccc(CNCc2cccs2)cc1Cl	inconclusive: 23.1 µM [activator, single point]	–
O=c1cc(N2CCOCC2)[nH]c(=O)n1-c1ccc(Br)cc1	inconclusive: 20.6 µM [activator, partial curve, poor fit]	–
O=C(NCc1ccccn1)c1ccc(NS(=O)(=O)c2cccc(Cl)c2)cc1	inconclusive: 3.66 µM [inhibitor, partial curve, poor fit]	–
Cc1cccc(C(=O)Nc2ccc(C(=O)Nc3ccc(O)cc3)cc2)c1	–	inactive: 8.42%
CCCc1ccc2oc(C(=O)N3CCC[C@H]3CO)c(C)c2c1	inconclusive: 14.6 µM [activator, partial curve]	–
NC(=O)c1ccc(NC(=O)CSc2nncn2-c2ccccc2)cc1	inconclusive: 25.9 µM [activator, partial curve, poor fit]	–
C=CCSc1nc2ccccc2n1Cc1nnc(-c2cccs2)o1	inconclusive: 29.1 µM [inhibitor, partial curve, poor fit]	–
CCn1cnc2cc(NCc3nc4ccccc4n3C)ccc21	inconclusive: 3.66 µM [activator, partial curve]	–
Cc1ccc2oc(=O)c(-c3ccc(O)cc3)c(C)c2c1	inconclusive: 12.6 µM [activator, partial curve]	–
CN1CCN(CCCNC(=O)c2cn(C)c3ccc(S(=O)(=O)N(C)C)cc3c2=O)CC1	inconclusive: 4.61 µM [activator, partial curve, poor fit]	–
Cc1ccc(S(=O)(=O)NNc2nnc(C)c(=O)[nH]2)cc1	–	inactive: 1.74%
CCCCc1nc(NCCNC(=O)c2ccccc2)c(C#N)c2c1CSC(C)(C)C2	inconclusive: 20.6 µM [inhibitor, single point]	–
C=CCn1nc([N+](=O)[O-])nc1Sc1cccc2cccnc12	inconclusive: 29.1 µM [inhibitor, single point]	–
COc1ccccc1-c1cc(C(=O)Nc2ccc(F)cc2F)no1	inconclusive: 25.9 µM [activator, single point]	–
Cc1ccc(NC(=S)N(CCN(C)C)Cc2cccs2)cc1	–	inactive: -15.4%
O=C(OCCOc1cccc(Cl)c1)c1cc(S(=O)(=O)N2CCCCC2)ccc1N1CCOCC1	active: 5.17 µM	–
COc1ccc(/C(N)=N/OC(=O)CCc2ccccc2)cc1	inconclusive: 18.3 µM [activator, partial curve]	–
CC(C)(C)c1ccc(OCCCN2CCCC2)cc1	–	inactive: 10%
CCOc1ccc(/C=N/NC(=O)c2nnn(-c3nonc3N)c2CN(C)C2CCCCC2)cc1	–	inactive: 22.6%

Given bar-delimited: part of the list above.
SMILES | Potency | activity change, negative = inhibition
O=c1cc(N2CCOCC2)[nH]c(=O)n1-c1ccc(Br)cc1 | inconclusive: 20.6 µM [activator, partial curve, poor fit] | –
O=C(NCc1ccccn1)c1ccc(NS(=O)(=O)c2cccc(Cl)c2)cc1 | inconclusive: 3.66 µM [inhibitor, partial curve, poor fit] | –
Cc1cccc(C(=O)Nc2ccc(C(=O)Nc3ccc(O)cc3)cc2)c1 | – | inactive: 8.42%
CCCc1ccc2oc(C(=O)N3CCC[C@H]3CO)c(C)c2c1 | inconclusive: 14.6 µM [activator, partial curve] | –
NC(=O)c1ccc(NC(=O)CSc2nncn2-c2ccccc2)cc1 | inconclusive: 25.9 µM [activator, partial curve, poor fit] | –
